± gives the uncertainty stated by the source. The uncertainty is large for many entries.
Experiment: self-splicing fitness, log relative to wild type (ln ratio); higher = more splicing; Tetrahymena group I intron in knt gene, E. coli kanamycin selection, DiMSum; sequences stand for … in CUCUCU…GGAGGGAAAAGUUAUCAGGCAUGCACCUGGUAGCUAGUCUUUAAACCAAUAGAUUGCAUCGGUUUAAAAGGCAAGACCGUCAAAUUGCGGGAAAGGGGUCAACAGCCGUUCAGUACCAAGUCUCAGGGGAAACUUUGAGAUGGCCUUGCAAAGGGUAUGGUAAUAAGCUGACGGACAUGGUCCUAACCACGCAGCCAAGUCCUAAGUCAACAGAUCUUCUGUUGAUAUGGAUGCAGUUCACAGACUAAAUGUCGGUCGGGGAAGAUGUAUUCUUCUCAUAAGAUAUAGUCGGACCUCUCCUUAAUGGGAGCUAGCGGAUGAAGUGAUGCAACACUGGAGCCGCUGGGAACUAAUUUGUAUGCGAAAGUAUAUUGAUUAGUUUUGGAGUACUCGUGGUCG
Outline: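 Pooled colonies went to amplicon sequencing on an Illumina HiSeq 2500 after six replicate transformations. The plates were LB agar with 100 μg/mL carbenicillin, 50 μM IPTG and 0.2% rhamnose, with or without 25 μg/mL kanamycin, incubated overnight at 37°C or 30°C. The E. coli BL21(DE3) library had all eight P1ex-region intron nucleotides randomised, the intron placed in the knt kanamycin-resistance gene on pET-22b(+). DiMSum fitness is the error-weighted combination of replicate fold changes, kanamycin against none, normalised to wild type.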

Sequence	self-splicing fitness (ln) (30 °C)	self-splicing fitness (ln) (37 °C)
GUACAGCAAUAUUACGUCAU	-1.7 ± 0.09	-1.13 ± 0.11
UCAUAGCAAUAUUACGUUAA	-3.75 ± 0.52	
UAAUAGCAAUAUUACGGAGC		-1.31 ± 0.63
GGGCAGCAAUAUUACGGUAA	-1.69 ± 0.27	-0.663 ± 0.19
CUGAAGCAAUAUUACGCAUC		-2.5 ± 0.55
CCCUAGCAAUAUUACGACCC	-3.96 ± 1	-1.54 ± 0.7
UUGUAGCAAUAUUACGAAGG	-3.83 ± 0.6	
UCAGAGCAAUAUUACGACCU		-3.04 ± 0.75
GAGGAGCAAUAUUACGAGGG	-2.68 ± 0.52	
GUUAAGCAAUAUUACGUAAC		-2.23 ± 0.56
CUAGAGCAAUAUUACGGCCA		-1.6 ± 0.59
CCGGAGCAAUAUUACGCUGC	-2.87 ± 0.78	
UAUUAGCAAUAUUACGAAAC	-4.01 ± 0.73	
UCUGAGCAAUAUUACGAAUU	-2.94 ± 0.53	-3.27 ± 0.73
UUUUAGCAAUAUUACGUACU	-2.12 ± 0.76	
ACAGAGCAAUAUUACGCAGC	-4.66 ± 0.72	
AUGGAGCAAUAUUACGAGAA	-1.02 ± 0.63	
UUGCAGCAAUAUUACGCUGG		-2.94 ± 0.53
UCUGAGCAAUAUUACGACCU	-4.64 ± 0.59	
CGGCAGCAAUAUUACGGGAU	-3.24 ± 0.18	-2.38 ± 0.23
UCGCAGCAAUAUUACGAUCG	-0.735 ± 0.092	-0.359 ± 0.12
CAUGAGCAAUAUUACGUCAG	-1.35 ± 0.095	-1.13 ± 0.12
UAUGAGCAAUAUUACGUCCG	-1.81 ± 0.57	
UUAGAGCAAUAUUACGAAGC	-3 ± 0.76	-2.12 ± 0.54

Sequence	self-splicing fitness (ln) (30 °C)	self-splicing fitness (ln) (37 °C)
UCGGAGCAAUAUUACGACGU	-3.43 ± 1	0.614 ± 0.85
ACACAGCAAUAUUACGAUUC	-1.96 ± 0.049	-1.32 ± 0.072
UUCAAGCAAUAUUACGGCCU	-2.42 ± 0.17	-0.267 ± 0.15
GCCUAGCAAUAUUACGCCCG	-1.96 ± 1.2	-1.51 ± 0.88
CGACAGCAAUAUUACGUCCA	-0.437 ± 0.066	-0.321 ± 0.081
UGUUAGCAAUAUUACGGAGA	-3.17 ± 1	-3.39 ± 1
AUGUAGCAAUAUUACGCCAC		-1.7 ± 0.8
UUCUAGCAAUAUUACGCCUC	-2.65 ± 0.76	
CUCUAGCAAUAUUACGAUAC	-3.73 ± 0.59	-2.12 ± 0.51
UGAUAGCAAUAUUACGGGGC		-3.36 ± 0.6
CCGGAGCAAUAUUACGAUUC	-1.32 ± 0.82	
CUUUAGCAAUAUUACGCCUC	-3.18 ± 0.74	
CCCAAGCAAUAUUACGGCGC	-4.63 ± 0.59	
CGUAAGCAAUAUUACGUAAG	-1.49 ± 0.1	-0.165 ± 0.092
GUGAAGCAAUAUUACGUUGA	-1.56 ± 0.078	-0.398 ± 0.093
UCCAAGCAAUAUUACGCCAC	-3.46 ± 1.1	
CGCUAGCAAUAUUACGACGC	-5.26 ± 0.71	
UGUGAGCAAUAUUACGGGAA	-2.56 ± 0.64	
ACCGAGCAAUAUUACGUAUC	-4.53 ± 0.51	
CUCCAGCAAUAUUACGCCGC		-2.62 ± 0.75
AAAUAGCAAUAUUACGAUGG	-2.87 ± 0.17	-1.97 ± 0.2
GAAUAGCAAUAUUACGAGAU	-3.86 ± 0.23	-1.22 ± 0.14
AGGGAGCAAUAUUACGUCCG	-2.7 ± 0.78	-0.818 ± 0.68
UGUCAGCAAUAUUACGCAAG	-4.4 ± 1	-2.33 ± 0.55

Sequence	self-splicing fitness (ln) (30 °C)	self-splicing fitness (ln) (37 °C)
CGUAAGCAAUAUUACGGGCC		-0.464 ± 0.68
GUAAAGCAAUAUUACGACAC	0.603 ± 0.098	0.696 ± 0.12
CCAGAGCAAUAUUACGGGAC		-2.84 ± 1
AGACAGCAAUAUUACGCGAC	-3.41 ± 0.44	-1.99 ± 0.21
GAGAAGCAAUAUUACGUCGC		-1.66 ± 0.83
GAUGAGCAAUAUUACGAUAC	-3.7 ± 0.38	-0.654 ± 0.2
UUGUAGCAAUAUUACGUUUC		-2.8 ± 0.53
CAGGAGCAAUAUUACGUACA	-2.55 ± 0.49	-1.73 ± 0.42
CAGCAGCAAUAUUACGAGAG	-2.38 ± 0.083	-1.81 ± 0.089
UUGGAGCAAUAUUACGCCAA		-2.81 ± 0.75
GCUAAGCAAUAUUACGAUAA	-1.88 ± 0.17	-1.1 ± 0.17
UCGGAGCAAUAUUACGAGAG		-1.19 ± 0.73
GGGAAGCAAUAUUACGUUGC		-3.22 ± 0.52
UGCGAGCAAUAUUACGCCGA	-1.97 ± 1.2	
UUGGAGCAAUAUUACGGUCG		-2.09 ± 0.65
UCUAAGCAAUAUUACGAGCC		-2.58 ± 0.54
UCAGAGCAAUAUUACGCUCG	-1.55 ± 1.2	-0.78 ± 0.6
ACUCAGCAAUAUUACGAGGG	-1.85 ± 0.08	-1.41 ± 0.1
GCGCAGCAAUAUUACGUAGU	-0.438 ± 0.06	0.18 ± 0.076
UAACAGCAAUAUUACGUACA	-0.576 ± 0.071	-0.319 ± 0.092
CAAUAGCAAUAUUACGGGCC	-5.08 ± 0.58	
GUAAAGCAAUAUUACGAGCC	-2.51 ± 0.33	-2.56 ± 0.26
GACUAGCAAUAUUACGUGCA	-0.898 ± 0.059	-0.504 ± 0.068
GUCUAGCAAUAUUACGCGCC	-2.65 ± 1.1	-2.02 ± 0.78

Sequence	self-splicing fitness (ln) (30 °C)	self-splicing fitness (ln) (37 °C)
AGAGAGCAAUAUUACGGGCA		-2.86 ± 0.75
GAGAAGCAAUAUUACGACCC		-0.185 ± 0.53
CGGGAGCAAUAUUACGCCGC		-2.05 ± 0.66
AGGGAGCAAUAUUACGCAAA	-3.12 ± 1.1	0.235 ± 0.6
CGGGAGCAAUAUUACGUAGU	-4.37 ± 0.73	
AGUGAGCAAUAUUACGUGGC	-0.0715 ± 0.8	
GUGGAGCAAUAUUACGGCGC	-1.42 ± 0.27	-0.0496 ± 0.26
AUCAAGCAAUAUUACGGUGG	-3.54 ± 0.19	-2.63 ± 0.2
AAAGAGCAAUAUUACGCGCU		-1.22 ± 0.56
UACCAGCAAUAUUACGGUAG	-2.15 ± 0.086	-1.16 ± 0.083
CCCGAGCAAUAUUACGUGGG	-3.97 ± 0.19	-2.79 ± 0.19
AGCCAGCAAUAUUACGCGUA	-1.99 ± 0.13	-1.44 ± 0.14
GGUGAGCAAUAUUACGCAGC	-2.97 ± 0.54	
UAGGAGCAAUAUUACGUUGG	-4.42 ± 0.72	
UGUGAGCAAUAUUACGCUGA		-0.916 ± 0.59
GGACAGCAAUAUUACGCUCU		-2.22 ± 0.58
UCGGAGCAAUAUUACGUUUU		-3.18 ± 0.53
GUAGAGCAAUAUUACGAAUA	-3.47 ± 0.61	-2.05 ± 0.66
UCUAAGCAAUAUUACGUACA	-1.57 ± 0.13	-1.13 ± 0.13
CAGAAGCAAUAUUACGAAUA	-2.43 ± 0.27	-1.84 ± 0.24
UGUGAGCAAUAUUACGGGAC	-1.27 ± 0.91	-2.21 ± 0.79
GAUGAGCAAUAUUACGCGGC	-3.01 ± 0.59	
UGGUAGCAAUAUUACGGUGC		-2.9 ± 1.1
GCGCAGCAAUAUUACGAACC	-0.868 ± 0.71	0.0779 ± 0.55

Quoted from the results shown for reference:
Sequence	self-splicing fitness (ln) (30 °C)	self-splicing fitness (ln) (37 °C)
CCGGAGCAAUAUUACGAUUC	-1.32 ± 0.82	
CUUUAGCAAUAUUACGCCUC	-3.18 ± 0.74	

Continuation.

Sequence	self-splicing fitness (ln) (30 °C)	self-splicing fitness (ln) (37 °C)
AGGGAGCAAUAUUACGGGAC		-0.44 ± 1
GCGGAGCAAUAUUACGUUCG	-3.43 ± 0.73	
GUUAAGCAAUAUUACGCGGC		-1.39 ± 1.2
UGGUAGCAAUAUUACGAUAC	-2.81 ± 1.1	-1.97 ± 0.52
CAAGAGCAAUAUUACGAUCU	-5.17 ± 0.71	-1.79 ± 0.31
CGUUAGCAAUAUUACGAAAC	-4.03 ± 0.6	
GCAGAGCAAUAUUACGGUCU	-3.54 ± 0.25	-2.39 ± 0.27
UCAGAGCAAUAUUACGGAGU	-4.27 ± 0.73	-4.11 ± 0.72
CUGAAGCAAUAUUACGGCAC	-3.16 ± 1	-1.45 ± 0.55
UUAGAGCAAUAUUACGAACC	-2.64 ± 0.6	
GGAGAGCAAUAUUACGCUGC	-3.55 ± 0.54	-1.9 ± 0.65
UGAGAGCAAUAUUACGAUGU		-3.17 ± 0.73
CCGUAGCAAUAUUACGGCAC	-3.83 ± 0.42	-2.14 ± 0.26
CAGUAGCAAUAUUACGCUCC	-3.44 ± 0.54	
GUGGAGCAAUAUUACGAACC	-4.17 ± 1.1	-0.00289 ± 0.53
UGUCAGCAAUAUUACGCUUC	-3.51 ± 0.52	
UCGGAGCAAUAUUACGCGCC		-1.28 ± 0.57
GGGUAGCAAUAUUACGCGUC	-2.81 ± 1.1	
CGGCAGCAAUAUUACGGGAC	-3.27 ± 0.5	
GUUCAGCAAUAUUACGCCGC	-4 ± 0.6	-2.53 ± 0.54

Two entries picked at random from those above, as already listed:
Sequence	self-splicing fitness (ln) (30 °C)	self-splicing fitness (ln) (37 °C)
UGUCAGCAAUAUUACGCUUC	-3.51 ± 0.52	
UUAGAGCAAUAUUACGAACC	-2.64 ± 0.6	

From the supplement of paper PMC7877785
